Where a name gives a salt, the structure may show the parent alone. This is one part of the list. Single values are uncertain here, since repeats match poorly.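 JEG3 cells stably express tetracycline-inducible wild-type human LRH-1, a highly sumoylated nuclear receptor. SUMO-sensitive transcripts APOC3 and MUC1, increased by SUMO-deficient LRH-1 or UBC9 knockdown, were quantified by RT-qPCR relative to TBP and DMSO controls. Primary hits had robust Z-scores above +2 or below -2, before toxicity and TBP filtering.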
test system: JEG3 expressing hLRH-1; test: APOC3 transcript change (ddCt vs TBP and DMSO), Z-score over library; higher = higher APOC3 expression; conditions: 10 µM; time (hr): 24

First: C[C@]12CCC(=O)C=C1CCC1C2CC[C@@]2(C)C1CC[C@@H]2O (stereo partly specified) [testosterone]
Second: CC(=O)O[C@H]1CC[C@@]2(C)C(=CCC3C2CC[C@]2(C)C(=O)CCC32)C1 (stereo partly specified) [praesterone acetate]
The “APOC3 transcript change (Z-score)” value of the first is higher: 0.546 for the first, 0.175 for the second.

Going from CC(=O)OC1CN2CCC1CC2 (stereo unspecified) [aceclidine hydrochloride] to C[N+]12CCC(CC1)C(OC(=O)C(O)(c1ccccc1)c1ccccc1)C2 (stereo unspecified) [clidinium bromide], the “APOC3 transcript change (Z-score)” value falls from 0.434 to 0.262.

Going from C[N+](C)(C)CCCCCCCCCC[N+](C)(C)C [Decamethonium dibromide] to O=C(O)CCCc1ccc(N(CCCl)CCCl)cc1 [chlorambucil], the “APOC3 transcript change (Z-score)” value rises from 0.19 to 0.719.

First: CNc1ccc(C(=O)CC(O)CCC(C)C2OC(=O)CC(O)CC(=O)CC(O)CC(O)CC(O)CC(O)CC3(O)CC(O)C(C(=O)OC)C(CC(O[C@@H]4O[C@H](C)[C@@H](O)[C@H](N)[C@@H]4O)/C=C/C=C/C=C/C=C/C=C/C=C/C=C/C2C)O3)cc1 (stereo partly specified) [mepartricin]
Second: CC1[C@H](C)OC(=O)CC(O)CC(O)CC(O)CCC(O)C(O)C[C@]2(O)CC(O)C(C(=O)O)C(CC(OC3O[C@H](C)[C@@H](O)[C@H](N)[C@@H]3O)/C=C/C=C/C=C/C=C/CC/C=C/C=C/[C@H](C)[C@H]1O)O2 (stereo partly specified) [nystatin]
The “APOC3 transcript change (Z-score)” value of the first is lower: -0.943 for the first, -0.417 for the second.

Compared with NCCc1cc(O)c(O)cc1O [oxidopamine hydrochloride], C[C@H](N)[C@H](O)c1ccc(O)c(O)c1 [levonordefrin] is higher in “APOC3 transcript change (Z-score)” value: 0.0319 for the first, 0.456 for the second.

First: O=C1C[C@@H]2OCC=C3CN4CC[C@]56c7ccccc7N1[C@H]5[C@H]2[C@H]3C[C@H]46 [strychnine]
Second: CN1C2C[C@H](OC(=O)[C@H](CO)c3ccccc3)C[C@H]1[C@H]1OC21 (stereo partly specified) [scopolamine hydrobromide]
The “APOC3 transcript change (Z-score)” value of the first is higher: 0.733 for the first, -0.265 for the second.

Going from NC(=O)c1cc([N+](=O)[O-])cc([N+](=O)[O-])c1 [nitromide] to O=C(N/N=C/c1ccc([N+](=O)[O-])o1)c1cc([N+](=O)[O-])cc([N+](=O)[O-])c1O [nifursol], the “APOC3 transcript change (Z-score)” value rises from -0.0516 to 0.833.

Compared with Oc1cc(Cl)ccc1Oc1ccc(Cl)cc1Cl [triclosan], Cc1cc(C(C#N)c2ccc(Cl)cc2)c(Cl)cc1NC(=O)c1cc(I)cc(I)c1O (stereo unspecified) [closantel] is lower in “APOC3 transcript change (Z-score)” value: 0.207 for the first, -0.591 for the second.

First: C=C[C@H]1CN2CC[C@H]1C[C@H]2[C@H](O)c1ccnc2ccccc12 [cinchonidine]
Second: c1ccc2nc(N3CCNCC3)ccc2c1 [Quipazine dimaleate]
The “APOC3 transcript change (Z-score)” value of the first is lower: 0.264 for the first, 0.267 for the second.

First: O=[N+]([O-])O[C@H]1CO[C@H]2[C@@H]1OC[C@H]2O[N+](=O)[O-] [isosorbide dinitrate]
Second: C[C@@H]1C[C@@H]([C@H](O)CC2CC(=O)NC(=O)C2)C(=O)[C@@H](C)C1 [cycloheximide]
The “APOC3 transcript change (Z-score)” value of the first is lower: -0.685 for the first, 0.104 for the second.

Compared with Nc1ccncc1 [4-Aminopyridine], CCOC(=O)c1cncn1[C@H](C)c1ccccc1 [etomidate] is higher in “APOC3 transcript change (Z-score)” value: -1.64 for the first, -0.0819 for the second.

First: CN1C[C@H](C(=O)N[C@]2(C)O[C@@]3(O)[C@@H]4CCCN4C(=O)[C@H](Cc4ccccc4)N3C2=O)C[C@@H]2c3cccc4[nH]cc(c34)C[C@H]21 [Dihydroergotamine methanesulfonate]
Second: O=C(CCCN1CCC2(CC1)C(=O)NCN2c1ccccc1)c1ccc(F)cc1 [Spiperone hydrochloride]
The “APOC3 transcript change (Z-score)” value of the first is higher: 1.27 for the first, -3.91 for the second.

First: CC(=O)[C@H]1CCC2[C@@H]3CCC4C[C@H](O)CC[C@]4(C)C3CC[C@@]21C (stereo partly specified) [eltanolone]
Second: CC(=O)O[C@H]1C[C@@H]2CC[C@@H]3[C@H](CC[C@@]4(C)[C@H]3C[C@H]([N+]3(C)CCCCC3)[C@@H]4OC(C)=O)[C@@]2(C)C[C@@H]1[N+]1(C)CCCCC1 [pancuronium bromide]
The “APOC3 transcript change (Z-score)” value of the first is higher: -0.3 for the first, -1.02 for the second.

First: O=C1C=C2C=C[C@@H]3C[C@@]2(O1)[C@H]1CCCCN31 [securinine]
Second: COc1ccc2c(c1)[C@]13CCCC[C@@H]1[C@H](C2)N(C)CC3 [dextromethorphan hydrobromide]
The “APOC3 transcript change (Z-score)” value of the first is lower: -2.63 for the first, -0.723 for the second.

Compared with CC(=O)Nc1cc([As](=O)(O)O)ccc1O [acetarsol], Cc1cc(O)ccc1Cl [chlorocresol] is lower in “APOC3 transcript change (Z-score)” value: -0.0977 for the first, -0.168 for the second.

Going from C=CC[C@]1(O)CC[C@H]2[C@@H]3CCC4=CC(=O)CCC4=C3C=C[C@@]21C [altrenogest] to COc1ccc(CN2CCNCC2)c(OC)c1OC [trimetazidine dihydrochloride], the “APOC3 transcript change (Z-score)” value falls from -0.276 to -1.08.

Going from C=CCN=C=S [allylisothiocyanate] to Cc1ccc(/N=C/N(C)/C=N/c2ccc(C)cc2C)c(C)c1 [amitraz], the “APOC3 transcript change (Z-score)” value falls from 1.3 to -0.255.

Compared with C1CCc2nnnn2CC1 [pentetrazole], O=C1[O][Pt]2([NH][C@@H]3CCCC[C@H]3[NH]2)[O]C1=O [oxaliplatin] is lower in “APOC3 transcript change (Z-score)” value: 0.296 for the first, -0.297 for the second.

Going from N[C@@H](Cc1ccc(N(CCCl)CCCl)cc1)C(=O)O [melphalan] to C#CCN(C)C(C)Cc1ccccc1 (stereo unspecified) [selegiline hydrochloride], the “APOC3 transcript change (Z-score)” value rises from 0.304 to 0.406.

First: CC(=O)OCC1=C(C(=O)O)N2C(=O)[C@@H](NC(=O)CCCC(N)C(=O)O)C2SC1 (stereo partly specified) [cephalosporin c sodium]
Second: CC(CCc1ccccc1)NC(C)C(O)c1ccc(O)cc1 (stereo unspecified) [Nylidrin hydrochloride]
The “APOC3 transcript change (Z-score)” value of the first is lower: -0.6 for the first, -0.316 for the second.

First: Nc1nc(N)nc(NC2CC2)n1 [cyromazine]
Second: C[N+]1(C)CCCC(OC(=O)C(O)(c2ccccc2)c2ccccc2)C1 (stereo unspecified) [mepenzolate bromide]
The “APOC3 transcript change (Z-score)” value of the first is lower: -0.127 for the first, 1.1 for the second.

Going from CC(O)(CS(=O)(=O)c1ccc(F)cc1)C(=O)Nc1ccc(C#N)c(C(F)(F)F)c1 (stereo unspecified) [bicalutamide] to c1ccc2c(c1)sc1ccccc12 [dibenzothiophene], the “APOC3 transcript change (Z-score)” value falls from -1 to -1.18.

Compared with O=c1[nH]c(=O)n(Cl)c(=O)n1Cl [troclosene potassium], CCC(C)[C@H]1O[C@]2(C=C[C@@H]1C)C[C@@H]1C[C@@H](C/C=C(\C)[C@@H](OC3C[C@H](OC)C(O[C@H]4C[C@H](OC)[C@@H](O)[C@H](C)O4)[C@H](C)O3)[C@@H](C)/C=C/C=C3\CO[C@@H]4[C@H](O)C(C)=C[C@@H](C(=O)O1)[C@]34O)O2 (stereo partly specified) [avermectin b1] is higher in “APOC3 transcript change (Z-score)” value: 0.301 for the first, 0.364 for the second.
